Experiment: general procedure: Fmoc solid-phase peptide synthesis; Wang resin; HBTU/DIPEA
Conditions: whole synthesis, MALDI-TOF

With (Pro-Hyp-Gly)7-Tyr the final ms purity was “greater than 99% purity”.
